{
  "source": "paper doi:10.1101/181180",
  "binders": {"B1": {"name": "Swd2 (two-hybrid fusion) (protein, UniProt P36104 1-329)", "chain": "MTTVSINKPNLLKFKHVKSFQPQEKDCGPVTSLNFDDNGQFLLTSSSNDTMQLYSATNCKFLDTIASKKYGCHSAIFTHAQNECIYSSTMKNFDIKYLNLETNQYLRYFSGHGALVNDLKMNPVNDTFLSSSYDESVRLWDLKISKPQVIIPSLVPNCIAYDPSGLVFALGNPENFEIGLYNLKKIQEGPFLIIKINDATFSQWNKLEFSNNGKYLLVGSSIGKHLIFDAFTGQQLFELIGTRAFPMREFLDSGSACFTPDGEFVLGTDYDGRIAIWNHSDSISNKVLRPQGFIPCVSHETCPRSIAFNPKYSMFVTADETVDFYVYDE"}, "B2": {"name": "Spp1 (two-hybrid fusion) (protein, UniProt Q03012 1-353)", "chain": "MSLPQWCPPHSTLKRNPTTGEDVYCICKRPDYGELMVGCDGCDDWFHFTCLHIPEQFKDLVFSFYCPYCQAGITGKNKDAIINGEGSLPKTLWKRKCRISDCYKPCLQDSKYCSEEHGREFVNDIWSRLKTDEDRAVVKKMVEQTGHIDKFKKFGQLDFIDNNIVVKTDDEKEIFDQIVVRDMTLKTLEDDLQEVQEISLPLFKKKLELLEVYLGWLDNVYTEMRKLDDDAASHVECGKEDSKGTKRKKKKNSSRSRARKNICGYCSTYERIPCSVEEFVRDFGSNEEATKIHEVCTKWKCNRHLDWVSTNQEQYLQQIDSLESMQERLQHLIQARKKQLNIQYYEEILRRGL"}, "B3": {"name": "Spp1 Δ263-266 (two-hybrid fusion) (protein, UniProt Q03012)", "chain": "MSLPQWCPPHSTLKRNPTTGEDVYCICKRPDYGELMVGCDGCDDWFHFTCLHIPEQFKDLVFSFYCPYCQAGITGKNKDAIINGEGSLPKTLWKRKCRISDCYKPCLQDSKYCSEEHGREFVNDIWSRLKTDEDRAVVKKMVEQTGHIDKFKKFGQLDFIDNNIVVKTDDEKEIFDQIVVRDMTLKTLEDDLQEVQEISLPLFKKKLELLEVYLGWLDNVYTEMRKLDDDAASHVECGKEDSKGTKRKKKKNSSRSRARKNISTYERIPCSVEEFVRDFGSNEEATKIHEVCTKWKCNRHLDWVSTNQEQYLQQIDSLESMQERLQHLIQARKKQLNIQYYEEILRRGL"}, "B4": {"name": "Spp1-Myc (protein, UniProt Q03012 1-353)", "chain": "B2 chain"}, "B5": {"name": "Mer2-Flag (protein, UniProt P21651 1-314)", "chain": "MVARGRTDEISTDVSEANSEHSLMITETSSPFRSIFSHSGKVANAGALEESDKQILEWAGKLELESMELRENSDKLIKVLNENSKTLCKSLNKFNQLLEQDAATNGNVKTLIKDLASQIENQLDKVSTAMLSKGDEKKTKSDSSYRQVLVEEISRYNSKITRHVTNKQHETEKSMRCTQEMLFNVGSQLEDVHKVLLSLSKDMHSLQTRQTALEMAFREKADHAYDRPDVSLNGTTLLHDMDEAHDKQRKKSVPPPRMMVTRSMKRRRSSSPTLSTSQNHNSEDNDDASHRLKRAARTIIPWEELRPDTLESEL"}, "B6": {"name": "Shg1 (two-hybrid fusion) (protein, UniProt P38337 1-142)", "chain": "MAYNQEDSKRLSDKYKKEGHFDKLKREILSNPWNNTEENSESFEQALRKRVASTVKEMVNEDEELIFKNRGLTSALIESQLVKDNYLKLGSKMEGDNGDGEKKFDLDVYVRSKLQDPKLLEMIKGQLQETLNSYEEEANGST"}, "B7": {"name": "Mer2_sid-Flag (protein, UniProt P21651 1-314)", "chain": "B5 chain with V195D"}, "B8": {"name": "Swd1-HA (protein, UniProt P39706 1-426)", "chain": "MNILLQDPFAVLKEHPEKLTHTIENPLRTECLQFSPCGDYLALGCANGALVIYDMDTFRPICVPGNMLGAHVRPITSIAWSPDGRLLLTSSRDWSIKLWDLSKPSKPLKEIRFDSPIWGCQWLDAKRRLCVATIFEESDAYVIDFSNDPVASLLSKSDEKQLSSTPDHGYVLVCTVHTKHPNIIIVGTSKGWLDFYKFHSLYQTECIHSLKITSSNIKHLIVSQNGERLAINCSDRTIRQYEISIDDENSAVELTLEHKYQDVINKLQWNCILFSNNTAEYLVASTHGSSAHELYIWETTSGTLVRVLEGAEEELIDINWDFYSMSIVSNGFESGNVYVWSVVIPPKWSALAPDFEEVEENVDYLEKEDEFDEVDEAEQQQGLEQEEEIAIDLRTREQYDVRGNNLLVERFTIPTDYTRIIKMQSS"}},
  "key": {"[1]": {"molecular_target": "T1, Set1 (two-hybrid fusion) (S. cerevisiae (SK1)) (UniProt P38827)", "T1 sequence": "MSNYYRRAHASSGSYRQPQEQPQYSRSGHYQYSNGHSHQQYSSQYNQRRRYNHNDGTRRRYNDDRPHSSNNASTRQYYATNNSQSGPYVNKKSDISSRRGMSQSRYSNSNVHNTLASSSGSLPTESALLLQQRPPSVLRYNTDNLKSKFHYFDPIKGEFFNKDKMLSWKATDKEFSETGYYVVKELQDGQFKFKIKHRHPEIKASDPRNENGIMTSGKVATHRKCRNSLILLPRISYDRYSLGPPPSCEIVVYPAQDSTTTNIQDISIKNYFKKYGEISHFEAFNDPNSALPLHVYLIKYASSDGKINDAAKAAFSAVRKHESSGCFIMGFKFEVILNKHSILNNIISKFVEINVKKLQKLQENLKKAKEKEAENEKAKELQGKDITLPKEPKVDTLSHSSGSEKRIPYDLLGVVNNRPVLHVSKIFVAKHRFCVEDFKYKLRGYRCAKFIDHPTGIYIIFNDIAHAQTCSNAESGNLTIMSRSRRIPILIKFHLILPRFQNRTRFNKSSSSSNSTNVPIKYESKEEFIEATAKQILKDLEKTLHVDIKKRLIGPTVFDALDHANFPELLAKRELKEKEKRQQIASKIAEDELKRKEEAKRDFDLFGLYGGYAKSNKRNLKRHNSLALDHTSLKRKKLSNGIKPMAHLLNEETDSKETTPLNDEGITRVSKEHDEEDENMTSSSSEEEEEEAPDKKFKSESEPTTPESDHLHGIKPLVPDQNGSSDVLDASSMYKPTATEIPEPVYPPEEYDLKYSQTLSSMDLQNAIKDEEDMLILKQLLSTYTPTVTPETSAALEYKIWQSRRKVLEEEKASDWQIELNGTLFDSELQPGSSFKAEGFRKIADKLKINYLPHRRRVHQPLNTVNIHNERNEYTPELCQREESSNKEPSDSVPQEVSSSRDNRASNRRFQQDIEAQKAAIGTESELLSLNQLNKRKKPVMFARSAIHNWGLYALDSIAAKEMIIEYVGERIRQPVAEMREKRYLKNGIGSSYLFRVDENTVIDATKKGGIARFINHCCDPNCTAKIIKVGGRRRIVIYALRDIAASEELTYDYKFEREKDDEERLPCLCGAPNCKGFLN", "assay": "two-hybrid"}, "[2]": {"molecular_target": "T2, Mer2 V195D (two-hybrid fusion) (S. cerevisiae) (UniProt P21651)", "T2 sequence": "B5 chain with V195D", "assay": "two-hybrid"}, "[3]": {"molecular_target": "T3, Mer2 (two-hybrid fusion) (S. cerevisiae) (UniProt P21651)", "T3 sequence": "B5 chain", "assay": "two-hybrid"}, "[4]": {"molecular_target": "T4, Mer2-Flag (S. cerevisiae (SK1)) (UniProt P21651)", "T4 sequence": "B5 chain", "assay": "co-IP"}, "[5]": {"molecular_target": "T5, Swd1-HA (S. cerevisiae (SK1)) (UniProt P39706)", "T5 sequence": "B8 chain", "assay": "co-IP"}, "[6]": {"molecular_target": "T6, Spp1-TAP (S. cerevisiae (SK1)) (UniProt Q03012)", "T6 sequence": "B2 chain", "assay": "co-IP"}},
  "note": "Residue numbers refer to the chain shown, from its start. No constants are given. Whether binding was seen depends on the method and setting. For some assays here: Binding seen in cells or lysates may run through a third protein. Some entries that bind do so weakly or less than the wild type. Sequences can lack the tags named with a protein.",
  "data": [
    {"binder": "B1", "values": [
      {"measurement": "binding", "setting": "[1]", "result": "binds"}
    ]},
    {"binder": "B2", "values": [
      {"measurement": "binding", "setting": "[2]", "result": "no binding"},
      {"measurement": "binding", "setting": "[1]", "result": "binds"},
      {"measurement": "binding", "setting": "[3]", "result": "binds"}
    ]},
    {"binder": "B3", "values": [
      {"measurement": "binding", "setting": "[3]", "result": "binds"}
    ]},
    {"binder": "B4", "values": [
      {"measurement": "binding", "setting": "[4]", "result": "binds"}
    ]},
    {"binder": "B5", "values": [
      {"measurement": "binding", "setting": "[5]", "result": "no binding"},
      {"measurement": "binding", "setting": "[6]", "result": "binds"}
    ]},
    {"binder": "B6", "values": [
      {"measurement": "binding", "setting": "[1]", "result": "binds"}
    ]},
    {"binder": "B7", "values": [
      {"measurement": "binding", "setting": "[6]", "result": "no binding"}
    ]},
    {"binder": "B8", "values": [
      {"measurement": "binding", "setting": "[4]", "result": "no binding"}
    ]}
  ]
}
